Values from PubChem BioAssay AID493246 (Drosophila RNAi Screening Center, 2011)
Assay: 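Identify essential fly genes by loss of cell viability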 (primary screen). Cells: Drosophila Kc and S2R+ cells. Reagents: long dsRNA against Drosophila genes. Measured: 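Raw, unnormalised count of remaining cells in each well; per-plate z-scores of cell number underlie the calls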. Scale: Kc cell number and S2R+ cell number: higher = more cells remaining. Active means: 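Counted as a hit if cell number falls by a z-score of at least 3 within its plate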.
The deposit covers about 21,000 reagents; shown is a random part of those with a known target gene and a result. Of all reagents, 429 (2%) are marked active. 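Values are raw and not normalised between plates; calls rest on per-plate z-scores that were not deposited.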 The numbers tell different reagents against one gene apart. No sequences are given here. Not given: the amount of reagent, the time to read-out.

gene	reagent no.	Kc cell number, rep 1	Kc cell number, rep 2	S2R+ cell number, rep 1	S2R+ cell number, rep 2	Call
CG11151	1	1.67e6	1.69e6	9.97e5	1.18e6	inactive
CG10550	1	4.90e5		8.50e5		inactive
CG7631	1	1.52e6	1.64e6	1.21e6	1.36e6	inactive
CG11068	1	1.44e6	1.49e6	1.03e6	1.08e6	inactive
CG15715	1	1.39e6	1.37e6	1.24e6	1.34e6	inactive
igl	1	1.02e6	9.87e5	6.22e5	6.31e5	active
CG33060	1	1.30e6	1.46e6	1.23e6	1.28e6	inactive
CG12863	1	1.57e6	1.59e6	1.18e6	1.30e6	inactive
mlt	1	1.37e6	1.40e6	1.14e6	1.19e6	inactive
CG14126 (retired record)	1	1.32e6	1.37e6	1.21e6	1.31e6	inactive
pcs	1	1.38e6	1.52e6	1.06e6	1.18e6	inactive
wuho	1	1.47e6	1.42e6	9.70e5	1.12e6	inactive
Gyf	1	5.03e5		8.18e5		inactive
nerfin-1	1	1.60e6	1.39e6	8.76e5	1.16e6	inactive
AstC-R2	1	1.40e6	1.67e6	1.40e6	1.48e6	inactive
CG14357	1	1.18e6	1.32e6	1.11e6	1.21e6	inactive
Grl43a	1	1.69e6	1.78e6	1.40e6	1.57e6	inactive
Brca2	1	1.47e6	1.52e6	1.30e6	1.40e6	inactive
Brca2	2	1.56e6	1.60e6	1.34e6	1.51e6	inactive
TFAM	1	1.43e6	1.48e6	1.03e6	1.16e6	inactive
DIP-gamma	1	5.01e5		8.05e5		inactive
Acn	1	1.29e6	1.36e6	1.24e6	1.26e6	inactive
Ugt304A1	1	1.62e6	1.56e6	1.34e6	1.41e6	inactive
CG8138	1	1.48e6	1.50e6	1.04e6	1.16e6	inactive
CG1416	1	1.52e6	1.64e6	1.16e6	1.17e6	inactive
CG31126	1	1.28e6	1.37e6	1.04e6	1.15e6	inactive
fid	1	1.47e6	1.43e6	9.70e5	1.04e6	inactive
fid	2	1.58e6	1.67e6	9.49e5	1.03e6	inactive
Nacalpha	1	1.33e6	1.42e6	1.00e6	1.11e6	inactive

Next part (10 carried over from the part before).
gene	reagent no.	Kc cell number, rep 1	Kc cell number, rep 2	S2R+ cell number, rep 1	S2R+ cell number, rep 2	Call
TFAM	1	1.43e6	1.48e6	1.03e6	1.16e6	inactive
DIP-gamma	1	5.01e5		8.05e5		inactive
Acn	1	1.29e6	1.36e6	1.24e6	1.26e6	inactive
Ugt304A1	1	1.62e6	1.56e6	1.34e6	1.41e6	inactive
CG8138	1	1.48e6	1.50e6	1.04e6	1.16e6	inactive
CG1416	1	1.52e6	1.64e6	1.16e6	1.17e6	inactive
CG31126	1	1.28e6	1.37e6	1.04e6	1.15e6	inactive
fid	1	1.47e6	1.43e6	9.70e5	1.04e6	inactive
fid	2	1.58e6	1.67e6	9.49e5	1.03e6	inactive
Nacalpha	1	1.33e6	1.42e6	1.00e6	1.11e6	inactive
CG17075	1	1.26e6	1.34e6	9.53e5	9.49e5	inactive
Spn42Db	1	1.72e6	1.71e6	1.39e6	1.52e6	inactive
La	1	1.57e6	1.73e6	1.36e6	3.40e5	inactive
Ald1	1	5.14e5		6.51e5		inactive
CG15499 (retired record)	1	1.46e6	1.45e6	1.10e6	1.24e6	inactive
CG12661	1	1.59e6	1.55e6	1.09e6	1.24e6	inactive
cav	1	1.47e6	1.55e6	1.08e6	1.12e6	inactive
CG7484	1	1.35e6	1.38e6	1.22e6	1.37e6	inactive
beat-IIb	1	1.38e6	1.43e6	1.00e6	1.06e6	inactive
beat-IIb	2	1.20e6	1.42e6	1.17e6	1.32e6	inactive
beat-IIb	3	1.30e6	1.48e6	1.25e6	1.45e6	inactive
Plp	1	1.48e6	1.72e6	1.33e6	1.50e6	inactive
Plp	2	1.30e6	1.50e6	1.36e6	1.41e6	inactive
Plp	3	1.53e6	1.56e6	1.19e6	1.28e6	inactive
hpRNA:CR32205	1	1.53e6	1.68e6	1.37e6	1.42e6	inactive
Gr58a	1	5.30e5		8.32e5		inactive
Tmem63	1	1.65e6	1.61e6	1.40e6	1.45e6	inactive
Ugt303B1	1	1.61e6	1.70e6	1.02e6	1.12e6	inactive
Acp65Aa	1	1.56e6	1.44e6	1.19e6	1.26e6	inactive
CG11030	1	1.46e6	1.39e6	1.09e6	1.24e6	inactive
CG42366	1	1.43e6	1.49e6	1.15e6	1.35e6	inactive
CG15696	1	1.29e6	1.34e6	1.06e6	1.08e6	inactive
CG5850	1	1.28e6	1.30e6	1.10e6	1.21e6	inactive
CR9337	1	1.26e6	1.35e6	9.35e5	1.01e6	inactive
CG8568	1	1.55e6	1.61e6	1.07e6	1.28e6	inactive
Opbp	1	1.52e6	1.60e6	1.27e6	1.39e6	inactive
rols	1	1.27e6	1.33e6	1.08e6	1.17e6	inactive
rols	2	1.37e6	1.30e6	1.23e6	1.35e6	inactive
rols	3	1.29e6	1.37e6	1.24e6	1.30e6	inactive
Atx2	1	3.25e5	6.12e5	5.58e5	4.46e5	active
CG32483	1	1.53e6	1.52e6	1.02e6	1.17e6	inactive
ctrip	1	1.51e6	1.54e6	1.09e6	1.21e6	inactive
ctrip	2	1.38e6	1.44e6	1.09e6	1.22e6	inactive
Tasp1	1	1.57e6	1.61e6	1.27e6	1.36e6	inactive
CG31926	1	1.58e6	1.63e6	1.10e6	1.26e6	inactive
Usp47	1	9.88e5	1.13e6	1.27e6	8.33e5	inactive
CG7634	1	1.33e6	1.38e6	1.31e6	1.41e6	inactive
CG14683	1	1.79e6	1.91e6	1.54e6	1.62e6	inactive
Cpr65Ea	1	1.33e6	1.32e6	1.25e6	1.24e6	inactive
P5CS	1	1.51e6	1.59e6	1.23e6	1.28e6	inactive
P5CS	2	1.39e6	1.43e6	1.28e6	1.34e6	inactive
ATP6AP2	1	1.84e6	1.92e6	1.45e6	1.68e6	inactive
CG12470	1	1.58e6	1.56e6	1.12e6	1.20e6	inactive
pdgy	1	1.39e6	1.75e6	1.12e6	1.25e6	inactive
pdgy	2	5.85e5		7.95e5		inactive
Fili	1	5.70e5		9.01e5		inactive
Fili	2	1.55e6	1.67e6	1.34e6	4.06e5	inactive
Fili	3	1.54e6	1.65e6	1.37e6	3.87e5	inactive
